Data taken from ChEMBL document CHEMBL3988442, “University of Dundee, Small-Polar-MMV Screening Library” (2021).

Protein sequences, listed by entry. Tags and fused reporters are not part of them.
UniProt P9WFT3, whole entry: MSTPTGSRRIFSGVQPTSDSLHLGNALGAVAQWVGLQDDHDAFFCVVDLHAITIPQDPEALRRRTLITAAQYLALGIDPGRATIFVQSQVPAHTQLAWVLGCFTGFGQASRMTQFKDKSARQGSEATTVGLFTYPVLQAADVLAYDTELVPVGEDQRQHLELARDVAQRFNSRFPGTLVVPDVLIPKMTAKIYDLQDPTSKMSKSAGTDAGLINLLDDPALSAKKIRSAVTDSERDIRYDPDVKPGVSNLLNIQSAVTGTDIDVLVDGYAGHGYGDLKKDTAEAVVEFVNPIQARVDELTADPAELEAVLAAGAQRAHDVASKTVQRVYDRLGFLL
UniProt I6X8D2, whole entry: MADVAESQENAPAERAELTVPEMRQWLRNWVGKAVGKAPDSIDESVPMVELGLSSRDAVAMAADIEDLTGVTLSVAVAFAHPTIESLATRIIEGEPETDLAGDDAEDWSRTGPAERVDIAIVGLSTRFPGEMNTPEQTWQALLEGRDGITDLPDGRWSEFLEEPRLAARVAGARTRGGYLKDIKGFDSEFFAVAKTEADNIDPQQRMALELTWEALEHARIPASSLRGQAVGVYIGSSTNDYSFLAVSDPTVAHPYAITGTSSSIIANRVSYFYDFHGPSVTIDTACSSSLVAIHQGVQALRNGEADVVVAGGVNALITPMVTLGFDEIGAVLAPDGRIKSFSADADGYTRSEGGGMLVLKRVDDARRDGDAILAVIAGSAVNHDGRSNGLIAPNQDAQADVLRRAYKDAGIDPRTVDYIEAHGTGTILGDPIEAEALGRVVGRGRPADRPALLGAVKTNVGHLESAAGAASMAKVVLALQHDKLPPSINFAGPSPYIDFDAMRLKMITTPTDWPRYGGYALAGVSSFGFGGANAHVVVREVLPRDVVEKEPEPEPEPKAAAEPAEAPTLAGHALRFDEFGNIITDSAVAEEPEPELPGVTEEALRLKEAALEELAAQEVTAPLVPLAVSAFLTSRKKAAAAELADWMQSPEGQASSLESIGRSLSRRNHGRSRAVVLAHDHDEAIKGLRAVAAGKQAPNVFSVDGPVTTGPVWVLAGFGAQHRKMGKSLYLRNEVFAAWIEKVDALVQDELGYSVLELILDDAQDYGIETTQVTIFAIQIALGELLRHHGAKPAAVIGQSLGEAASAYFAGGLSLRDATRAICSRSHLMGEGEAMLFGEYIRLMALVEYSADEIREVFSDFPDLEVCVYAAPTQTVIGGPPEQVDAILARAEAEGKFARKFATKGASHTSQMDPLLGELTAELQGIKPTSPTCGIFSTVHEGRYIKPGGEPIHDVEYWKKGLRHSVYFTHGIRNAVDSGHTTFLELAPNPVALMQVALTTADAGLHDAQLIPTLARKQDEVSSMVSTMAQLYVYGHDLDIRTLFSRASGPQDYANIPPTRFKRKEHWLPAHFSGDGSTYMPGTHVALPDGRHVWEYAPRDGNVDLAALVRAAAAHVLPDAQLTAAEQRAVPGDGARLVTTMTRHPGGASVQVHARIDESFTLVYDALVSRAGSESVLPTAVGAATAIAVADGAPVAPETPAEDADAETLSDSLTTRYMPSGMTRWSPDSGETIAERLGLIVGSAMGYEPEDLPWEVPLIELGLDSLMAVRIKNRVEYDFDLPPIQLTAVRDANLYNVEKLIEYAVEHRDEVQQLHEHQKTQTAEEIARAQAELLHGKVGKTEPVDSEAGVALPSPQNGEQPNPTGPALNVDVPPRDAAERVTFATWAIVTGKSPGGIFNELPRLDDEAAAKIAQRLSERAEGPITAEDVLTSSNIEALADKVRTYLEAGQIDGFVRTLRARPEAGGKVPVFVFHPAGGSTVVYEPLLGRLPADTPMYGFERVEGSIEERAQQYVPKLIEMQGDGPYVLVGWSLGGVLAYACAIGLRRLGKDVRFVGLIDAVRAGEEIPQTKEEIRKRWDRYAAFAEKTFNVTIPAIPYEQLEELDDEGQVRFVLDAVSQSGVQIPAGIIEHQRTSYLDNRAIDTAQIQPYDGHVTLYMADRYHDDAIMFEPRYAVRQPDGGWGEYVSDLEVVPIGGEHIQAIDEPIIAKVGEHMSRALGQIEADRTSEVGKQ

MtTrpRS: 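Enzyme assay of tryptophanyl-tRNA synthetase; the read-out is not stated. Target: Tryptophan-tRNA ligase, Mycobacterium tuberculosis (UniProt P9WFT3). Concentration: 10 µM. Direction is not recorded; retested compounds ran higher, which suggests that high means inhibition. Of about 65,000 compounds tested this way, about 64 (0.098%) reached 50% or more in at least one test.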
Pks13 thioesterase: 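Enzyme assay of the thioesterase domain of polyketide synthase 13; the read-out is not stated. Target: Polyketide synthase Pks13, Mycobacterium tuberculosis (UniProt I6X8D2). Tested at 30 µM. The record gives no direction; the compounds picked for IC50 retests had high values, so higher reads as stronger inhibition. Of about 67,000 compounds tested this way, about 300 (0.46%) reached 50% or more in at least one test.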

Each number is a percent effect as filed. How 0% and 100% were set is not recorded. Most values in the screen are low, and negative values occur. Compounds were drawn at random from those tested, without regard to their results. A dash means the value is not listed here; it may have been measured.

| # | SMILES | MtTrpRS | Pks13 thioesterase |
|---|---|---|---|
| 1 | `Cc1cnn(C2CCCN(C(=O)CCCOc3ccccc3F)C2)c1` (centres unmarked) | 1.533 | -17.11 |
| 2 | `CCc1nnc2n1CCN(C(=O)CN(CC)CC)C2` | 26.93 | -27.63 |
| 3 | `CCNC(=O)C1(Cc2cc(-c3ccc(C)cc3)no2)CCCN(C)C1` (centres unmarked) | 3.876 | -11.07 |
| 4 | `CC1CN(CCOc2ccccc2C#N)CCN1Cc1nccn1C` (centres unmarked) | -5.834 | -11.59 |
| 5 | `CCCC(O)CN1CCC(=O)N(CCOC)Cc2ccccc21` (centres unmarked) | - | 12.17 |
| 6 | `O=C(NCCN1CCCC1)Nc1cc(C(=O)N2CCOCC2)ccc1Cl` | 0.9839 | -0.8677 |
| 7 | `CC(C)(C)c1nnc(CN2CCn3c(nnc3C3CC3)C2)o1` | -0.4223 | -4.758 |
| 8 | `COc1ccc(NC(=O)NC(C)Cc2ccco2)cn1` (centres unmarked) | -5.824 | -4.343 |
| 9 | `CN(CCc1ccncc1)C(=O)C1CSCN1C(=O)C1CCCC1` (centres unmarked) | -0.000009 | 14.98 |
| 10 | `CCS(=O)(=O)N1C[C@@H](Oc2ccccn2)[C@H]2OCCC[C@H]21` | 27.81 | 2.662 |
| 11 | `CC(=O)N1CCC[C@H]1C(=O)NCCCN(C(C)C)S(C)(=O)=O` | 1.016 | -49.14 |
| 12 | `Cc1ncsc1CNC(=O)CCN1CCN(c2ccccn2)CC1` | 1.687 | -25.52 |
| 13 | `Cc1cc(NC(=O)C2CCN(c3ncccc3C#N)CC2)no1` | 8.896 | -18.93 |
| 14 | `COCCn1cc2c(n1)C(CNCc1ccc(F)cc1)OCC2` (centres unmarked) | -3.752 | -9.006 |
| 15 | `Cc1nn(C)c(C)c1CC(C)NC(=O)NCc1ccn(C(C)C)n1` (centres unmarked) | -5.21 | -9.238 |
| 16 | `CNC(=O)NC(=O)CCSCc1cc(Cl)cc2cccnc12` | -5.71 | -1.02 |
| 17 | `COc1cc(OC)c2nc(NCCN3CCNC3=O)cc(C)c2c1` | -3.382 | 35.59 |
| 18 | `OCC1CCCN1c1cc(N2CCC(OC3CCCC3)CC2)ncn1` (centres unmarked) | -2.424 | -14.51 |
| 19 | `Cc1nccc(C(=O)N2CCCN(Cc3nccn3C(C)C)CC2)n1` | -3.209 | -17.5 |
| 20 | `CNCc1ccc([C@@H]2CN(C(C)=O)C[C@H]2C(=O)N(C)C)cc1` | -6.901 | -2.288 |
| 21 | `N#Cc1ccc(CNC(=O)NC2CCN(CC(F)(F)F)C2)cc1` (centres unmarked) | -0.4397 | -39.69 |
| 22 | `Cc1ncsc1CN(C)C(=O)C(CC(C)C)N1CCCCC1=O` (centres unmarked) | -3.964 | -43.09 |
| 23 | `CCc1ccc(NC(=O)CC2Cn3ncnc3NC2=O)cc1` (centres unmarked) | -5.791 | 1.665 |
| 24 | `CC(C)c1cc(N2CCCC3(CCN(C)C3)C2)ncn1` (centres unmarked) | 0.4105 | 1.104 |
| 25 | `CS(=O)(=O)N[C@@H]1CN(C(=O)c2ccccn2)C[C@@H]2CCCO[C@@H]21` | 0.6876 | -15.07 |
| 26 | `CNC(=O)C(NC(=O)c1c(C)noc1C)c1ccc(F)c(F)c1` (centres unmarked) | -0.3812 | -4.873 |
| 27 | `Cc1noc([C@@H]2C[C@H](NC(=O)Nc3cccc(F)c3)CN2C)n1` | 4.476 | 7.985 |
| 28 | `CC(C)C[C@H](Nc1nc(C2CCCC2)nc2c1cnn2C)C(N)=O` | -1.459 | -7.581 |
| 29 | `CS(=O)(=O)c1cccc(S(=O)(=O)NC(=O)CC2CCCC2)c1` | -2.119 | -4.105 |
| 30 | `CCOCCCNC(=O)C1CCC(=O)N(CCc2ccc(Cl)cc2)C1` (centres unmarked) | -0.7638 | 5.931 |
| 31 | `CC(C)c1nnc2n1CCN(Cc1cc(Cl)c3c(c1)OCCO3)C2` | 1.924 | -10.75 |
| 32 | `N#Cc1ccc(OCC(=O)N2CCCC(n3cccn3)C2)cc1` (centres unmarked) | 1.221 | -5.848 |
| 33 | `CC(C)(C)C(=O)N1CCCN(c2ncnc3nc(N)ccc23)CC1` | 9.612 | 18.3 |
| 34 | `Cc1cccc(NC(=O)[C@@H]2CCCN2Cc2nc(C)c(C)o2)n1` | 3.114 | -8.068 |
| 35 | `CCC(C)(C)c1cc(-c2c(C)nn(CCO)c2C)c(C#N)c(N)n1` | 0.5376 | -12.66 |
| 36 | `O=C(C1CC1)N1CCc2c(ncnc2N2CCN3CCCC3C2)C1` (centres unmarked) | 2.381 | -30.96 |
| 37 | `Cc1nc(C)c(CC(=O)Nc2nnc(C3CC3)s2)c(=O)[nH]1` | -0.208 | -20.89 |
| 38 | `CCc1nc(C2CCCN2C(=O)CCc2c(C)noc2Cl)no1` (centres unmarked) | 0.5136 | -15.85 |
| 39 | `CCC(C)[C@H](N)c1nnc(SCC(=O)Nc2ccc(Br)cc2)o1` (some centres unmarked) | -0.8862 | -1.965 |
| 40 | `Fc1cccnc1N1CCC2(CNCCC2(F)F)C1` (centres unmarked) | 5.289 | 9.947 |
| 41 | `O=S(=O)(N1CCOCC1)N1CCCC(c2ccccn2)C1` (centres unmarked) | -2.865 | 6.679 |
| 42 | `c1ccc(-c2cccc(-c3ccn(CCN4CCCCC4)n3)c2)nc1` | 18.56 | 14.32 |
| 43 | `CC(C)NC(=O)N1CCC2(CC(=O)N(c3ccsc3)C2)C1` (centres unmarked) | -5.307 | -11.7 |
| 44 | `O=C(CNc1ccc(OC2CCOC2)cc1)NCc1ccc(F)cc1` (centres unmarked) | -0.9181 | -5.332 |
| 45 | `CC(C)N(CC(N)=O)Cc1csc(C(C)(C)C)n1` | -3.553 | -15.7 |
| 46 | `CS(=O)(=O)NC1CC2(CCN(CC3CC3)CC2)Oc2ccccc21` (centres unmarked) | -2.087 | -22.2 |

Repeated from the top, 5 entries:

SMILES,MtTrpRS,Pks13 thioesterase
Cc1cnn(C2CCCN(C(=O)CCCOc3ccccc3F)C2)c1 (centres unmarked),1.533,-17.11
CCc1nnc2n1CCN(C(=O)CN(CC)CC)C2,26.93,-27.63
CCNC(=O)C1(Cc2cc(-c3ccc(C)cc3)no2)CCCN(C)C1 (centres unmarked),3.876,-11.07
CC1CN(CCOc2ccccc2C#N)CCN1Cc1nccn1C (centres unmarked),-5.834,-11.59
CCCC(O)CN1CCC(=O)N(CCOC)Cc2ccccc21 (centres unmarked),-,12.17